The list shows only some results of the screen, not a fair sample: it is rich in T/C values a quarter to a half above the control, in often repeated tests (any T/C) and in doses without a T/C. Further doses and runs are listed elsewhere. T/C: endpoint of the treated group in % of that of the vehicle group. Some entries give survivors of the animals treated and no T/C: the source files T/C as zero there, which appears to mark a toxic dose or a test without result, not a measured value. Some survivor counts are full or nearly so, which does not show that the dose was tolerated: the source hardly ever lists a survival T/C far under the control, and the zero likely stands for such cases as well. Counts of survivors are from the toxicity check (mostly the fifth day) where no day follows; animals may have died later. Schedule codes are those of the source, taken here to give the interval after Q, in days (D) or hours (H), and the number of doses after X. Some entries were tested several times; the results are listed from low to high. Where survival is the endpoint, the PubChem record calls one and a half times the control and up active, and a quarter to a half above the control has no call in these data; cut-offs in other NCI protocols can differ. Additions like (4×) count equal records among those shown.
System: L1210 leukemia ip in BDF1 mice, survival T/C
Assay: NCI In Vivo Anticancer Drug Screen. Data for tumor model L1210 Leukemia (intraperitoneal) in B6D2F1 (BDF1) mice
Conditions: T/C endpoint: mean survival time, higher T/C = longer survival
[1] = dose: 200.0 mg/kg/injection, schedule: Q01DX001 (ip), vehicle: saline
[2] = dose: 100.0 mg/kg/injection, schedule: Q04DX002 (ip), vehicle: Klucel (hydroxypropylcellulose) (HPC)
[3] = dose: 400.0 mg/kg/injection, schedule: Q04DX003 (ip), vehicle: saline with Tween-80
[4] = dose: 300.0 mg/kg/injection, schedule: Q01DX001 (ip), vehicle: other

Question: Which survivor count (dose: 200.0 mg/kg/injection, schedule: Q01DX009 (ip), vehicle: saline) does the source give for `O=C(O)C1(O)CCCCC1` here?
Answer: 2 of 3

Question: And the survivor count (dose: 400.0 mg/kg/injection, schedule: Q01DX009 (ip), vehicle: saline)?
Answer: 0 of 3

Question: And the survivor count (dose: 400.0 mg/kg/injection, schedule: Q04DX002 (ip), vehicle: saline)?
Answer: 2 of 3

Question: How did the survivor count [1] turn out when `COC(=O)C1=CO[C@@H](C)[C@@H]2Cn3ccc4c5ccccc5nc-4c3C[C@H]12` was run?
Answer: 4 of 4

Question: Which survivor count (dose: 200.0 mg/kg/injection, schedule: Q01DX001 (ip), vehicle: carboxymethylcellulose (CMC)) does the source give for `C[C@@H]1C[C@@]2(C)[C@@H](CC[C@@H]3[C@@H]2CC[C@]2(C)[C@@H](OC4CCCCO4)CC[C@@H]32)CC1=O` (stereo partly specified) here?
Answer: 4 of 4

Question: How did the survivor count (dose: 400.0 mg/kg/injection, schedule: Q01DX001 (ip), vehicle: other) turn out when `CN(C)N=Nc1ccc2ncccc2c1[N+](=O)[O-]` was run?
Answer: 1 of 6

Question: Which T/C [2] does the source give for `O=C(Nc1ccc(F)cc1)Nc1nccs1` here?
Answer: 102, 107, 110 % of control

Question: And the survivor count [2]?
Answer: 3 of 3

Question: And the T/C (dose: 200.0 mg/kg/injection, schedule: Q04DX002 (ip), vehicle: Klucel (hydroxypropylcellulose) (HPC))?
Answer: 100, 104, 108, 112 % of control

Question: And the survivor count (dose: 400.0 mg/kg/injection, schedule: Q01DX009 (ip), vehicle: Klucel (hydroxypropylcellulose) (HPC))?
Answer: 3 of 6

Question: What about the T/C (dose: 400.0 mg/kg/injection, schedule: Q04DX002 (ip), vehicle: Klucel (hydroxypropylcellulose) (HPC)) of the same compound?
Answer: 98, 105 (2×), 125 % of control

Question: Which results are given for `CCCCc1cccc(N2C(N)=NC(N)=NC2(C)C)c1`?
Answer: survivor count (dose: 100.0 mg/kg/injection, schedule: Q01DX001 (ip), vehicle: saline): 1 of 6 and 2 of 6; survivor count [1]: 0 of 6; survivor count (dose: 400.0 mg/kg/injection, schedule: Q01DX001 (ip), vehicle: saline): 0 of 6

Question: `CS(=O)(=O)O/C=C1/CCOC1=O` was tested. Which survivor count (dose: 50.0 mg/kg/injection, schedule: Q01DX009 (ip), vehicle: water) did it give?
Answer: 3 of 6

Question: What about the survivor count (dose: 100.0 mg/kg/injection, schedule: Q01DX009 (ip), vehicle: water) of the same compound?
Answer: 2 of 6

Question: And the survivor count (dose: 200.0 mg/kg/injection, schedule: Q01DX009 (ip), vehicle: water)?
Answer: 0 of 6

Question: `[N-]=[N+]=NCc1nnc2ncnc(N)c2n1` was tested. Which survivor count (dose: 50.0 mg/kg/injection, schedule: Q01DX009 (ip), vehicle: saline with Tween-80) did it give?
Answer: 1 of 6

Question: And the survivor count (dose: 100.0 mg/kg/injection, schedule: Q01DX009 (ip), vehicle: saline with Tween-80)?
Answer: 0 of 6

Question: What about the survivor count (dose: 200.0 mg/kg/injection, schedule: Q01DX001 (ip), vehicle: saline with Tween-80) of the same compound?
Answer: 2 of 6

Question: And the survivor count (dose: 400.0 mg/kg/injection, schedule: Q01DX001 (ip), vehicle: saline with Tween-80)?
Answer: 0 of 6

Question: How did the survivor count (dose: 100.0 mg/kg/injection, schedule: Q04DX003 (ip), vehicle: saline) turn out when `COc1cc2c3c(c1)C(O)CC[N+]3(C)CCC2` (stereo unspecified) was run?
Answer: 6 of 6

Question: And the survivor count (dose: 200.0 mg/kg/injection, schedule: Q04DX003 (ip), vehicle: saline)?
Answer: 0 of 6

Question: And the survivor count (dose: 400.0 mg/kg/injection, schedule: Q04DX003 (ip), vehicle: saline)?
Answer: 1 of 6

Question: Which results are given for `CCCCCC(CC)C(CC)CO` (stereo unspecified)?
Answer: survivor count (dose: 75.0 mg/kg/injection, schedule: Q01DX001 (ip), vehicle: carboxymethylcellulose (CMC)): 1 of 6; survivor count (dose: 150.0 mg/kg/injection, schedule: Q01DX001 (ip), vehicle: carboxymethylcellulose (CMC)): 1 of 6; survivor count (dose: 300.0 mg/kg/injection, schedule: Q01DX001 (ip), vehicle: carboxymethylcellulose (CMC)): 1 of 6

Question: Which survivor count (dose: 400.0 mg/kg/injection, schedule: Q04DX003 (ip), vehicle: Klucel (hydroxypropylcellulose) (HPC)) does the source give for `CC12CCC(C1)C(C)(C)C2C(N)=O` (stereo unspecified) here?
Answer: 3 of 6

Question: Which survivor count [3] does the source give for `CCOC1(C(=O)O)CC(c2ccc(Cl)cc2)Nc2c(OC)ccc(OC)c21` (stereo unspecified) here?
Answer: 6 of 6

Question: How did the survivor count (dose: 200.0 mg/kg/injection, schedule: Q04DX003 (ip), vehicle: saline with Tween-80) turn out when `N#CC1=C(N)CCCC1` was run?
Answer: 0 of 6

Question: And the survivor count [3]?
Answer: 0 of 6

Question: For `OC1CCC(CC2CCCCC2)CC1` (stereo unspecified), which survivor count (dose: 100.0 mg/kg/injection, schedule: Q04DX003 (ip), vehicle: saline with Tween-80) is on record?
Answer: 6 of 6

Question: `NCC(c1ccccc1)C(Cc1ccccc1)[N+](=O)[O-]` (stereo unspecified) was tested. Which survivor count [4] did it give?
Answer: 1 of 6

Question: For `CCC(C)N=Cc1ccccc1O.CCC(C)N=Cc1ccccc1O.[Cu]` (stereo unspecified), which survivor count (dose: 75.0 mg/kg/injection, schedule: Q01DX001 (ip), vehicle: other) is on record?
Answer: 1 of 6

Question: What about the survivor count (dose: 150.0 mg/kg/injection, schedule: Q01DX001 (ip), vehicle: other) of the same compound?
Answer: 1 of 6

Question: What about the survivor count [4] of the same compound?
Answer: 0 of 6
